Measured values reported in PubChem BioAssay AID1332 (Southern Research Institute, 2008).
In brackets after ≈: the same amount, converted by molar mass. Some of the results follow. The main result of the screen is listed elsewhere. These columns were measured beside it and carry no call.

Test: Mycobacterium tuberculosis H37Rv growth inhibition, confirmatory dose response, cytotoxicity (AID 1332);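 for CC50: Vero cells exposed to compounds for 72 hours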;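 for IC50: bacteria incubated 7 days before adding Alamar blue readout reagent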
Conditions: M. tuberculosis H37Rv growth inhibition; CC50: measured here: Vero cell cytotoxicity; IC50: measured here: IC50 H37Rv replicates

Structure (SMILES)	IC50	CC50
CCN1CCN(C(=O)N[C@@H](C(=O)N[C@@H]2C(=O)N3[C@@H]2SC(C)(C)[C@@H]3C(=O)O)c2ccccc2)C(=O)C1=O	> 20 µg/mL	
CN(C)C(=N)N=C(N)N	> 20 µg/mL	
C[C@]12N[C@H](Cc3ccccc31)c1ccccc12	> 20 µg/mL	
O[C@@H]1CCCC[C@H]1N1CCC(c2ccccc2)CC1	> 20 µg/mL	
COc1ccc(NS(=O)(=O)c2ccc(N)cc2)nn1	> 20 µg/mL	
Nc1ccc(C(=O)NCC(=O)O)cc1	> 20 µg/mL	
OC[C@H]1O[C@@H](Oc2ccc(O)cc2)[C@H](O)[C@@H](O)[C@@H]1O	> 20 µg/mL	
OCCN1CCN(CCCN2c3ccccc3Sc3ccc(Cl)cc32)CC1	6.29 µg/mL (≈ 15.6 µM)	> 6 µg/mL
C#CCN(C)Cc1ccccc1	> 20 µg/mL	
COc1ccc2cc(CCC(C)=O)ccc2c1	> 20 µg/mL	
CCn1cc(C(=O)O)c(=O)c2ccc(C)nc21	> 19.4 µg/mL	
CC1=C2[C@H]3OC(=O)[C@@H](C)[C@@H]3CC[C@@]2(C)C=CC1=O	> 20 µg/mL	
CCN(CC)CCNC(=O)c1cc(S(C)(=O)=O)ccc1OC	> 20 µg/mL	
O=C(CCCN1CC=C(n2c(=O)[nH]c3ccccc32)CC1)c1ccc(F)cc1	> 20 µg/mL	
CN/C(=C/[N+](=O)[O-])NCCSCc1ccc(CN(C)C)o1	> 20 µg/mL	
COc1cc2nc(N3CCN(C(=O)c4ccco4)CC3)nc(N)c2cc1OC	> 20 µg/mL	3.95 µg/mL (≈ 10.3 µM)
CCn1cc(C(=O)O)c(=O)c2cnc(N3CCNCC3)nc21	> 20 µg/mL	
COc1nc(C)nc(Cl)c1NC1=NCCN1	> 20 µg/mL	
Cc1ccc(S(=O)(=O)NC(=O)NN2CC3CCCC3C2)cc1 (configuration not stated)	> 20 µg/mL	
COc1ccc(-c2cc(=O)c3c(O)cc(O)cc3o2)cc1	> 20 µg/mL	
O=c1c(O)c(-c2cc(O)c(O)c(O)c2)oc2cc(O)cc(O)c12	> 20 µg/mL	
C[C@H]1CC[C@@H]2[C@@H](C)[C@H]3[C@H](C[C@H]4[C@@H]5CC=C6C[C@@H](O[C@@H]7O[C@H](CO)[C@H](O)[C@H](O[C@@H]8O[C@H](CO)[C@@H](O)[C@H](O)[C@H]8O)[C@H]7O[C@@H]7O[C@@H](C)[C@H](O)[C@@H](O)[C@H]7O)CC[C@]6(C)[C@H]5CC[C@]34C)N2C1	> 20 µg/mL	
COc1ccc(C(=O)NCc2cccnc2)cc1C(=O)NCc1cccnc1	> 20 µg/mL	
CN1C[C@H](CO)C=C2c3cccc4[nH]cc(c34)C[C@H]21	> 20 µg/mL	
COc1ccc2[nH]cc(CCNC(C)=O)c2c1	> 20 µg/mL	
O=C(NCCNCC(O)COc1ccc(O)cc1)N1CCOCC1 (configuration not stated)	> 20 µg/mL	

Structure (SMILES)	IC50	CC50
CCN(Cc1ccncc1)C(=O)C(CO)c1ccccc1 (configuration not stated)	> 20 µg/mL	
COc1ccc(CCN2CCC(Nc3nc4ccccc4n3Cc3ccc(F)cc3)CC2)cc1	4.48 µg/mL (≈ 9.76 µM)	4.36 µg/mL (≈ 9.51 µM)
CCN(CC)CC#CCOC(=O)C(O)(c1ccccc1)C1CCCCC1 (configuration not stated)	> 20 µg/mL	
Cc1ncc([N+](=O)[O-])n1CCO	> 20 µg/mL	
Fc1ccc(C(OCCN2CCN(CCCc3ccccc3)CC2)c2ccc(F)cc2)cc1	3.04 µg/mL (≈ 6.74 µM)	5.09 µg/mL (≈ 11.3 µM)
CC(C)(C)NCC(O)c1cc(Cl)c(N)c(Cl)c1 (configuration not stated)	> 20 µg/mL	
CC(C)NCC(O)COc1ccc(COCCOC(C)C)cc1 (configuration not stated)	> 20 µg/mL	
COC(=O)C1=CCCN(C)C1	> 20 µg/mL	
Nc1nc(=S)c2ncn([C@@H]3O[C@H](CO)[C@@H](O)[C@H]3O)c2[nH]1	2.62 µg/mL (≈ 8.75 µM)	0.41 µg/mL (≈ 1.37 µM)
Cc1c(OCC(F)(F)F)ccnc1CS(=O)c1nc2ccccc2[nH]1 (configuration not stated)	4.47 µg/mL (≈ 12.1 µM)	
CC(=O)N[C@@H](CC(C)C)C(=O)O	> 20 µg/mL	
CN(C)CCN(Cc1cccs1)c1ccccn1	> 20 µg/mL	
Clc1ccc(C(Cn2ccnc2)OCc2c(Cl)cccc2Cl)c(Cl)c1 (configuration not stated)	1.54 µg/mL (≈ 3.71 µM)	
NC(=O)N1c2ccccc2C=Cc2ccccc21	> 20 µg/mL	
NCCC(=O)NCCc1cnc[nH]1	> 20 µg/mL	
O=c1cc(-c2ccc(O)cc2)oc2cc(O)cc(O)c12	> 20 µg/mL	> 6 µg/mL
O=C(Cn1ccnc1[N+](=O)[O-])NCCO	> 20 µg/mL	
c1ccc(C2CN3CCSC3=N2)cc1 (configuration not stated)	> 20 µg/mL	
COc1cc2cc3c4cc(OC)c(OC)cc4cc[n+]3c(C)c2cc1OC	0.97 µg/mL	
COc1ccc(Cc2nccc3cc(OC)c(OC)cc23)cc1OC	> 20 µg/mL	> 6 µg/mL
Cc1scc2c1N(C(=O)CN1CCN(C)CC1)c1ccccc1NC2=O	> 20 µg/mL	
CCCNC(C)C(=O)Nc1ccccc1C (configuration not stated)	> 20 µg/mL	
COc1ccc(CN(CCN(C)C)c2ccccn2)cc1	> 20 µg/mL	
CC(COc1ccccc1)N(CCCl)Cc1ccccc1 (configuration not stated)	> 10 µg/mL	
CC(=O)c1ccc(S(=O)(=O)NC(=O)NC2CCCCC2)cc1	> 20 µg/mL	
C[C@@H]1NCCc2cc(O)c(O)cc21	> 20 µg/mL	

Structure (SMILES)	IC50	CC50
Cc1cc(=O)oc2cc(O)ccc12	> 20 µg/mL	
CCC1(CC)C(=O)C=CNC1=O	> 20 µg/mL	
COc1cc(C(=O)OC2C[C@H]3CC[C@@H](C2)N3C)ccc1O (some centres not stated)	> 20 µg/mL	
CCOC(=O)OC(C)OC(=O)[C@@H]1N2C(=O)[C@@H](NC(=O)[C@H](N)c3ccccc3)[C@H]2SC1(C)C (some centres not stated)	> 20 µg/mL	
NCCCC[C@H](N[C@@H](CCc1ccccc1)C(=O)O)C(=O)N1CCC[C@H]1C(=O)O	> 20 µg/mL	
CC(C)(C)NC[C@H](O)COc1nsnc1N1CCOCC1	> 20 µg/mL	
C1CCN2C[C@@H]3C[C@@H](CN4CCCC[C@@H]34)[C@H]2C1	> 20 µg/mL	
COc1ccc2c(OC)c3ccoc3nc2c1OC	> 20 µg/mL	
CC1CC(OC(=O)C(O)c2ccccc2)CC(C)(C)N1C (configuration not stated)	> 20 µg/mL	
Cc1nnc(NS(=O)(=O)c2ccc(N)cc2)s1	2.29 µg/mL (≈ 8.47 µM)	
C[C@@H]1O[C@@H](O[C@H]2C[C@@H](O)[C@]3(CO)[C@H]4[C@H](O)C[C@]5(C)[C@@H](C6=CC(=O)OC6)CC[C@]5(O)[C@@H]4CC[C@]3(O)C2)[C@H](O)[C@H](O)[C@H]1O	> 20 µg/mL	0.092 µg/mL (≈ 0.157 µM)
O=C(O)COC(=O)Cc1ccccc1Nc1c(Cl)cccc1Cl	> 20 µg/mL	
CC[C@H]1CN2CCC1C[C@H]2[C@H](O)c1ccnc2ccc(OC)cc12 (some centres not stated)	> 20 µg/mL	
COc1ccc2c3c([nH]c2c1)C(C)=NCC3	> 20 µg/mL	
CCCN1CCC[C@@H]2Cc3[nH]ncc3C[C@H]21	> 10 µg/mL	
CCn1nc(C(=O)O)c(=O)c2cc3c(cc21)OCO3	> 20 µg/mL	
CCCCNc1ccc(C(=O)OCCOCCOCCOCCOCCOCCOCCOCCOCCOC)cc1	> 20 µg/mL	
O=C(O)/C=C/c1ccc(Cn2ccnc2)cc1	> 20 µg/mL	
CCC1=C(C)CN(C(=O)NCCc2ccc(S(=O)(=O)NC(=O)NC3CCC(C)CC3)cc2)C1=O (configuration not stated)	> 20 µg/mL	
CC1/C=C/C=C/CC/C=C/C=C/C=C/C=C/C(O[C@@H]2O[C@H](C)[C@@H](O)[C@H](N)[C@@H]2O)CC(O)C(C(=O)O)C(O)CC(=O)CC(O)C(O)CCC(O)CC(O)CC(O)CC(=O)OC(C)C(C)C1O (some centres not stated)	> 20 µg/mL	
Oc1ccc(OCc2ccccc2)cc1	> 20 µg/mL	2.71 µg/mL (≈ 13.5 µM)
C[C@H]1C[C@H]2[C@@H]3CCC4=CC(=O)C=C[C@]4(C)[C@@]3(F)[C@@H](O)C[C@]2(C)[C@@]1(O)C(=O)CO	> 20 µg/mL	
Cc1ccc(Cl)c(Nc2ccccc2C(=O)O)c1Cl	> 20 µg/mL	
COC(=O)Nc1nc2ccc(SC(C)C)cc2[nH]1	> 20 µg/mL	> 6 µg/mL
CCN1CCN(C(=O)N[C@@H](C(=O)N[C@@H]2C(=O)N3C(C(=O)O)=C(CSc4nnnn4C)CS[C@H]23)c2ccc(O)cc2)C(=O)C1=O	> 20 µg/mL	
CN(C)C(=O)Oc1cc(OC(=O)N(C)C)cc(C(O)CNC(C)(C)C)c1 (configuration not stated)	> 20 µg/mL	

Reformatted: results already given.
Structure (SMILES),IC50,CC50
CCCN1CCC[C@@H]2Cc3[nH]ncc3C[C@H]21,> 10 µg/mL,
CCn1nc(C(=O)O)c(=O)c2cc3c(cc21)OCO3,> 20 µg/mL,
CCCCNc1ccc(C(=O)OCCOCCOCCOCCOCCOCCOCCOCCOCCOC)cc1,> 20 µg/mL,
O=C(O)/C=C/c1ccc(Cn2ccnc2)cc1,> 20 µg/mL,
CCC1=C(C)CN(C(=O)NCCc2ccc(S(=O)(=O)NC(=O)NC3CCC(C)CC3)cc2)C1=O (configuration not stated),> 20 µg/mL,
CC1/C=C/C=C/CC/C=C/C=C/C=C/C=C/C(O[C@@H]2O[C@H](C)[C@@H](O)[C@H](N)[C@@H]2O)CC(O)C(C(=O)O)C(O)CC(=O)CC(O)C(O)CCC(O)CC(O)CC(O)CC(=O)OC(C)C(C)C1O (some centres not stated),> 20 µg/mL,

Later entries

Structure (SMILES)	IC50	CC50
C[C@]12CC[C@H](O)C[C@@H]1CC[C@@H]1[C@@H]2CC[C@]2(C)C(=O)CC[C@@H]12	> 20 µg/mL	
O=C1CC2(CCCC2)CC(=O)N1CCCCN1CCN(c2ncccn2)CC1	> 20 µg/mL	
CCC1(c2ccc(N)cc2)CCC(=O)NC1=O (configuration not stated)	> 20 µg/mL	
COc1ccc2cc(C(C)C(=O)O)ccc2c1 (configuration not stated)	> 20 µg/mL	
O=C(NCC(O)CO)c1c(I)c(C(=O)NCC(O)CO)c(I)c(N(CCO)C(=O)CO)c1I (configuration not stated)	> 20 µg/mL	
CO/N=C(\C(=O)N[C@@H]1C(=O)N2C(C(=O)O)=C(COC(N)=O)CS[C@H]12)c1ccco1	> 20 µg/mL	
C[C@@H](N)[C@@H](O)c1ccccc1	> 20 µg/mL	
Nc1ccc(S(=O)(=O)Nc2ccnn2-c2ccccc2)cc1	3.12 µg/mL (≈ 9.92 µM)	
CC1Cc2ccccc2N1NC(=O)c1ccc(Cl)c(S(N)(=O)=O)c1 (configuration not stated)	> 20 µg/mL	
O=[N+]([O-])c1cc([As](=O)(O)O)ccc1O	> 20 µg/mL	
c1ccc([C@H]2CN3CCSC3=N2)cc1	> 20 µg/mL	
CN(C)CC/C=C1\c2ccccc2Sc2ccc(Cl)cc21	2.53 µg/mL (≈ 8 µM)	> 6 µg/mL
O=C1OCCN1/N=C/c1ccc([N+](=O)[O-])o1	4.8 µg/mL (≈ 21.3 µM)	> 6 µg/mL
COc1ccc(C2CNC(=O)C2)cc1OC1CCCC1 (configuration not stated)	> 20 µg/mL	
C[C@H]1C[C@@H]2[C@H]([C@@H](O)C[C@@]3(C)[C@H]2CC[C@]3(O)C(=O)CO)[C@@]2(C)C=CC(=O)C=C12	> 20 µg/mL	
CCCNCC(O)COc1ccccc1C(=O)CCc1ccccc1 (configuration not stated)	> 20 µg/mL	
COc1cc([C@@H]2c3cc4c(cc3[C@@H](O[C@@H]3O[C@@H]5CO[C@@H](C)O[C@H]5[C@H](O)[C@H]3O)[C@H]3COC(=O)[C@H]23)OCO4)cc(OC)c1O	> 20 µg/mL	> 6 µg/mL
Nc1nc2n[nH]nc2c(=O)[nH]1	> 20 µg/mL	0.704 µg/mL (≈ 4.63 µM)
CN(C)c1nc(N(C)C)nc(N(C)C)n1	> 20 µg/mL	
CC(C)NCC(O)c1ccc2ccccc2c1 (configuration not stated)	> 20 µg/mL	
COc1ccc(C(=O)OC2C[C@H]3CC[C@H](C2)N3C)cc1OC (some centres not stated)	> 20 µg/mL	
CC(NCCC(c1ccccc1)c1ccccc1)c1ccccc1 (configuration not stated)	4.25 µg/mL (≈ 13.5 µM)	> 6 µg/mL
CC[C@]12CCCN3CCc4c(n(c5ccccc45)[C@](O)(C(=O)OC)C1)[C@@H]32	> 20 µg/mL	
CC[C@@H](C)C(=O)O[C@H]1[C@H](O)[C@H]2[C@@H](CN3C[C@@H](C)CC[C@H]3[C@@]2(C)O)C2C[C@]34O[C@@]5(O)[C@@H](OC(=O)[C@](C)(O)CC)CC[C@@]3(C)[C@@H]5[C@@H](OC(C)=O)[C@@H](OC(C)=O)[C@H]4[C@@]21O (some centres not stated)	> 20 µg/mL	
